Experimental findings from publication PMC9856275 are described below.

Protein sequences, listed by entry. Tags and fused reporters are not part of them.
UniProt Q7Z4V5: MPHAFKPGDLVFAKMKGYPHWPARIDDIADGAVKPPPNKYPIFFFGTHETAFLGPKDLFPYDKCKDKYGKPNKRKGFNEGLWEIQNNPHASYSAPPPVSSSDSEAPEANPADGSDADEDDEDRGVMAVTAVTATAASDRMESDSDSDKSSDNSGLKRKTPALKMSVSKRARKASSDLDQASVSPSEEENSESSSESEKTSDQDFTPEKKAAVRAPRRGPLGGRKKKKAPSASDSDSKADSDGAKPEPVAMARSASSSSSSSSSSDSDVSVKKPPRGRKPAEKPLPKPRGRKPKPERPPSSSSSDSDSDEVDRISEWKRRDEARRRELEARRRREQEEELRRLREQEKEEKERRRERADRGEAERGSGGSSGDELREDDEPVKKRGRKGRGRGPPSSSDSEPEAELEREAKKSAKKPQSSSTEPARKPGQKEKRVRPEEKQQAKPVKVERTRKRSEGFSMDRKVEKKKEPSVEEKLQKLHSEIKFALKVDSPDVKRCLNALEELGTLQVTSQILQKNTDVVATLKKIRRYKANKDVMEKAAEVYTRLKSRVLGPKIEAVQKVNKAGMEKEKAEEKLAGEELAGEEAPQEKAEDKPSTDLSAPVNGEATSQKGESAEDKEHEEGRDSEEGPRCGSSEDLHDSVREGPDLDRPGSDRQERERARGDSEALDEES
UniProt P45973: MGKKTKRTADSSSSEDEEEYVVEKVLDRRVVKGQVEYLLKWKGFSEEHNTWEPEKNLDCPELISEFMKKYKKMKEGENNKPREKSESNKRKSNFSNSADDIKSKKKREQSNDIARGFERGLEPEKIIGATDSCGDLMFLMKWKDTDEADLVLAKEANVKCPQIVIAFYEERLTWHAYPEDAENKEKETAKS
UniProt Q99549: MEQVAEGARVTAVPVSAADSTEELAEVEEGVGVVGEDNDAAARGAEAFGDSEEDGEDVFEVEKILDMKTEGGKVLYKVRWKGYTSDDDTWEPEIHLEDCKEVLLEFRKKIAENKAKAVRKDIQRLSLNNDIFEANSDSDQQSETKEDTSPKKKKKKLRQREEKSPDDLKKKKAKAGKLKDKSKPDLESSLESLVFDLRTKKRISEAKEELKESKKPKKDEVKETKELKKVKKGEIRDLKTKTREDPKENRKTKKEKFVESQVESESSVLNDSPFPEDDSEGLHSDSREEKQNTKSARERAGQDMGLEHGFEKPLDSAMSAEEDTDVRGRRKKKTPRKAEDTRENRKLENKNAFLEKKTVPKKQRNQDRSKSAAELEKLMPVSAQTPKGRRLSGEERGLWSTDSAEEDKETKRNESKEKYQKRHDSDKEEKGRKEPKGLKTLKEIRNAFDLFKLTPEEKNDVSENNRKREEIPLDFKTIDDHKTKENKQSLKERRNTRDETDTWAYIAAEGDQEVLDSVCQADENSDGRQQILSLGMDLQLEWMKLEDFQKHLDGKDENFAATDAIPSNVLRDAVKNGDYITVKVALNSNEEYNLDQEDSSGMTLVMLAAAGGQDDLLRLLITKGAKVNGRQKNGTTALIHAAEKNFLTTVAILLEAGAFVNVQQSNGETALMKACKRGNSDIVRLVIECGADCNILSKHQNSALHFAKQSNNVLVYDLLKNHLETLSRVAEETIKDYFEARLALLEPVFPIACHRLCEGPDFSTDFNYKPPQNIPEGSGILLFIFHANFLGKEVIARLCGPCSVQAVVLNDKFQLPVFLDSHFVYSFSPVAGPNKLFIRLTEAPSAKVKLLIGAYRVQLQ
UniProt P04406: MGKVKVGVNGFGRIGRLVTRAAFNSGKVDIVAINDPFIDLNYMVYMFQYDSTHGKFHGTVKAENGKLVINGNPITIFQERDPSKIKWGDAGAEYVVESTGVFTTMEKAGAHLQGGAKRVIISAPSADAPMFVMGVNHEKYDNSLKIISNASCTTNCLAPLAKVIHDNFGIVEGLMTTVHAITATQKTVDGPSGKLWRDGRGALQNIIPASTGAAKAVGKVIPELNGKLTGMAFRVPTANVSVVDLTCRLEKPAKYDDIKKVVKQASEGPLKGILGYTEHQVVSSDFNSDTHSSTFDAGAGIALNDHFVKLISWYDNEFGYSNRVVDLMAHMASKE
UniProt Q9UK61: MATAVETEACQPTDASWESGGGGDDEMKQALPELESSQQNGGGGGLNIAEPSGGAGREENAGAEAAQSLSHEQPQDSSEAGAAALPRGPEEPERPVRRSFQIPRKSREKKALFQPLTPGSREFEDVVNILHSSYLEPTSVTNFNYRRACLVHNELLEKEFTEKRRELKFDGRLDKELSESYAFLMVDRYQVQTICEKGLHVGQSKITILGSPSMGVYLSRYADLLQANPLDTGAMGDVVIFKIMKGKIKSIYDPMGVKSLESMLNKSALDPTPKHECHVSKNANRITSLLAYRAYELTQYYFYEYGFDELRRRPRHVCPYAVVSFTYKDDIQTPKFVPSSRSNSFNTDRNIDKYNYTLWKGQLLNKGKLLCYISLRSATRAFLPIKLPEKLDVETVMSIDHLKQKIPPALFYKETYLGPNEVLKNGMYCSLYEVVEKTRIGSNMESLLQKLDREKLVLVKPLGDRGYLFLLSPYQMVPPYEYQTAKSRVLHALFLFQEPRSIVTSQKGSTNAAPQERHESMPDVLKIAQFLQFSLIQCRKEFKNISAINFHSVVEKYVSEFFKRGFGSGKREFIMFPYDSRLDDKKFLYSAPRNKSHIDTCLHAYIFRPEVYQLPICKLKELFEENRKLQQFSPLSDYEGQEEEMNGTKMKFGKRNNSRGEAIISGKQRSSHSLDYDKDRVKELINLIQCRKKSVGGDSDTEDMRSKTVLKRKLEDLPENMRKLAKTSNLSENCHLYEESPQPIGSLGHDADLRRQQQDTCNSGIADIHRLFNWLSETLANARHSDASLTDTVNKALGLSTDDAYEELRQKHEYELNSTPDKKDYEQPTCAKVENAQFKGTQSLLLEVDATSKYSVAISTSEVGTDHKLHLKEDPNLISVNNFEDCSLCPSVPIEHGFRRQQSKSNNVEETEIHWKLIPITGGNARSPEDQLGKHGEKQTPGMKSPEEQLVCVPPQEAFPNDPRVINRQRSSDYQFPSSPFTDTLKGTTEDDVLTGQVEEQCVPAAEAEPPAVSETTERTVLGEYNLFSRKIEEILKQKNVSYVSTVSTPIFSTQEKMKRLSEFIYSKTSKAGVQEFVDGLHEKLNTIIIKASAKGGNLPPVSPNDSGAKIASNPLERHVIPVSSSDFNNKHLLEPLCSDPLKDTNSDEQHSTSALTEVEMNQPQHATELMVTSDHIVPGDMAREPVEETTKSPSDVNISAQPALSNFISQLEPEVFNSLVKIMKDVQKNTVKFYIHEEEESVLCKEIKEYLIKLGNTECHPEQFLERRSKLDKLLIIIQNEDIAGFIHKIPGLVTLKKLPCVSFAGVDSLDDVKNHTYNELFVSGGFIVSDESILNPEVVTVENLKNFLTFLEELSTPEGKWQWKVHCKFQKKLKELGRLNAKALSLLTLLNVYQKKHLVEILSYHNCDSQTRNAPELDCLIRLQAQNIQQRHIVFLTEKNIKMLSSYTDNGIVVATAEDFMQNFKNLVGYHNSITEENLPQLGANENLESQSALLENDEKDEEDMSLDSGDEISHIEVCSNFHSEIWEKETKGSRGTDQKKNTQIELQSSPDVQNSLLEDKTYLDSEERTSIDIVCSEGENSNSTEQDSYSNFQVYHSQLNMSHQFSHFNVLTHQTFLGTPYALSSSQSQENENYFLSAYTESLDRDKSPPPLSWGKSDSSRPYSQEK

For experiment [1], the target named is hepatoma-derived growth factor-related protein 2 (human (endogenous in HEK 293T)) (UniProt Q7Z4V5). Kind of experiment: co-IP; endogenous proteins of HEK 293T whole-cell lysate (M-PER, benzonase-treated); IP antibody on Protein G Dynabeads; 500 mM NaCl; immunoblot.
For experiment [2] the target is unchanged. Kind of experiment: co-IP; endogenous proteins of HEK 293T whole-cell lysate (M-PER, benzonase-treated); IP antibody on Protein G Dynabeads, 4 °C overnight; 150 mM NaCl; immunoblot.
Experiment [3] has the same target. The experiment is described as follows: co-sedimentation; 5–20% sucrose density gradient ultracentrifugation (250,000 x g, 16 h, 4 °C) of 1.3 mg nuclear extract of HRP2 wild-type or HRP2 knockout 293T cells; 21 fractions of 500 μL analysed by immunoblot.
The target of experiment [4] is heterochromatin protein 1 alpha (human (endogenous in HEK 293T)) (UniProt P45973). The experiment is described as follows: co-IP; α-HP1α on Protein G Dynabeads; whole-cell lysates of HRP2 wild-type and HRP2 knockout 293T cells; immunoblot.

No constants are given. Whether binding was seen depends on the method and setting. Binding seen in cells or lysates may run through a third protein. Some results given as binding are weak or reduced against the parent protein; the word gives no strength.

“heterochromatin protein 1 alpha (from UniProt P45973 1-191)”: the binding result in experiment [1], in experiment [2] and in experiment [3] was “binds” in each case.

“M-phase phosphoprotein 8 (from UniProt Q99549 1-860)”: the binding result in experiment [4], in experiment [1], in experiment [2] and in experiment [3] was “binds” in each case.

For GAPDH (from UniProt P04406 1-335), the binding result in experiment [1] and in experiment [2] was “no binding” throughout.

Regarding TASOR (from UniProt Q9UK61 1-1670), in experiment [4], the binding result is given as “binds”.
